Measurements from PMC9274497.
These are yes or no findings as the source states them, for the method shown. Binding seen in cells or lysates may run through a third protein. Some entries that bind do so weakly or less than the wild type.

Protein sequences, listed by entry. Tags and fused reporters are not part of them.
UniProt Q969H0: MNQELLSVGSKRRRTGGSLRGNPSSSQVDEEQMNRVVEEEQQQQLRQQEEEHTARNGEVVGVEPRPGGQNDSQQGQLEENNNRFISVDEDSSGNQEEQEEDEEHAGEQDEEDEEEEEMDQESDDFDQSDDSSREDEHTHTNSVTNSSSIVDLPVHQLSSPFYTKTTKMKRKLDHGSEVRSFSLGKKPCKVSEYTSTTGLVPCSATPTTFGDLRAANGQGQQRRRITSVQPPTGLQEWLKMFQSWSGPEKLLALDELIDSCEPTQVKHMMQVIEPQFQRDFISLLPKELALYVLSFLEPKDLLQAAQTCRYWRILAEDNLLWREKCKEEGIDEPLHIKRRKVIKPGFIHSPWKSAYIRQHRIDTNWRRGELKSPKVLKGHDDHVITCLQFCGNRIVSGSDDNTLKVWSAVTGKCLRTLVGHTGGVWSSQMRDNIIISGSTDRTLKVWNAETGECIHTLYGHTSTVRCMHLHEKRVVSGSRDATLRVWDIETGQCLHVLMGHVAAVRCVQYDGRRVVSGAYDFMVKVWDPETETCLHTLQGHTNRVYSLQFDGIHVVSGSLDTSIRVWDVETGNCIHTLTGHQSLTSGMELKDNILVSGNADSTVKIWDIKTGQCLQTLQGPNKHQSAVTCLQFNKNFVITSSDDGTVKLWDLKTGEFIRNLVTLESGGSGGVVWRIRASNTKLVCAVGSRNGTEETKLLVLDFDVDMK
UniProt P01106: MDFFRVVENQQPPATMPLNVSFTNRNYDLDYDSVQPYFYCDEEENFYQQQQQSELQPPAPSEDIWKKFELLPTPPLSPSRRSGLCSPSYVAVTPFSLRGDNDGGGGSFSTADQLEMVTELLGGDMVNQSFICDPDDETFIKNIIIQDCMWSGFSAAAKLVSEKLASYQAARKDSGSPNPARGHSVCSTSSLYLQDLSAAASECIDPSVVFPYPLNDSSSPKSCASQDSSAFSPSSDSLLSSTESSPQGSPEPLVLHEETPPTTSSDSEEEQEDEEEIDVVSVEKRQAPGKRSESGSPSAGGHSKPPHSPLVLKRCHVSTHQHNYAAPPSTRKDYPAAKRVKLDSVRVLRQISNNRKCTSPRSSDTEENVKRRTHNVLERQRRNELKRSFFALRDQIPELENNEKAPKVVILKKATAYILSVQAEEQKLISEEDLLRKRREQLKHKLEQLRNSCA

Columns and labels:
[1] = target: FBXW7 (human (endogenous in LUAD cells)) (UniProt Q969H0); test: co-IP; cell lysates (IP lysis buffer) with specific antibody or normal IgG (20 ug/mL) at 4 °C overnight; protein A/G magnetic beads 30 min at room temperature; washed five times with 50 mM Tris, 150 mM NaCl, 0.2% Triton X-100, 0.2% Tween, pH 7.5; immunoblot; LUAD cells (A549, SPC-A1)
[2] = target: c-Myc (human (endogenous in A549 and SPC-A1)) (UniProt P01106); test: as above

binding [1]: binds | binding [2]: binds
B1: CCDC65 (Coiled-coil domain 65) (protein, UniProt Q8IXS2 1-484)
chain: MPKKEKMAKTPLSDEKQLLLFQQKLLAEEEMAKKKERLLSQFLKDKLAKEEHNSALNLNKINTQWRTVLREVKTRELHKDIEILSQTFERVVDCKDNVIKSLAKDLSEAEEQYAHALRSHLHNVDQLLALQRHRLSLLEESYNMELEALTKEFETERKTIIDQHEKEIHYLQDIFMAMEQNYIDSEYESKLEFQSMWNDLKNMNLEEKHFLRLHLENRVEDLWRKFQDVLKNYTDATEDRKAAFETLQVKDEKSSKEIEVQMKKIQKLQDAITISKGKIMIHSRESEDENRYIRNDKELVLVQLRKLKAQRTQARAASQKNLVRLTLESNATLKALRKIVDKGEKILKLAEICRKFETEEEKVLPFYSSVLTPKEQEGIQKNNLEELTEELTKVMVDYIGMENFWKRYNKVKLEQLSLQHRRAQLLDINGKLREMLKQYLDGISVSDEVLSQLNPLFIVNYQSNLLQPLSIRIAHPGDKQHPTT
